Measured values published in PubChem BioAssay AID504834 (National Center for Advancing Translational Sciences (NCATS), 2011).
The campaign covered roughly 320,000 compounds. About 22,000 (6.9%) were called active. Inconclusive results, whose numbers are uncertain, are shown with a selection of clear calls. The call rests on the fitted dose curve; in most records, active means well fitted inhibition curve with a large enough effect; inconclusive means small, poorly fitted or top-dose-only effect, or another doubt; inactive means no such curve, though single readings can be large or run the other way. A potency beside an inconclusive call is a rough fit, not a confirmed value.

Test: Primary qHTS for delayed death inhibitors of the malarial parasite plastid, 96 hour incubation
Details: P. falciparum luciferase reporter growth; series mostly up to 28.7 µM
In short: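 Luminescence readout: decreased luciferase signal marks inhibited growth of reporter-expressing P. falciparum in infected red cells (2% hematocrit, 0.05% parasitemia final), exposed to compound two generations (96 h, 37 C, 5% CO2).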
Potency means the concentration at half of the fitted maximal effect.

Structure (SMILES)	Potency
CC(=O)Nc1ccccc1C(=O)C(=O)Nc1ccc(F)c(Cl)c1	inconclusive: 18.5 µM [inhibitor, single point]
Cc1ccc(Oc2ccc(Cl)cc2NC(=O)c2ccc(F)cc2F)cc1	active: 10.4 µM
Cc1ccc(NS(=O)(=O)c2ccc(C(=O)NCCCN3CCOCC3)cc2)cc1	inactive
O=C(c1cnc2nc3ccccc3n2c1)c1cc(F)ccc1O	inconclusive: 18.5 µM [inhibitor, single point]
CC(C)CCn1c(N2CCN(Cc3ccccc3)CC2)nc2c1c(=O)[nH]c(=O)n2C	inconclusive: 10.4 µM [inhibitor, single point]
CNS(=O)(=O)c1ccc(NC(=O)c2ccc(Cl)cc2Cl)cc1	inconclusive: 18.5 µM [inhibitor, single point]
NCCc1nnc(SCC(=O)Nc2cccc(Cl)c2)o1	inconclusive: 18.5 µM [inhibitor, single point]
O=C(NCC(c1cccs1)N1CCOCC1)c1cc(-c2ccc(F)cc2)nc2ccccc12 (stereo not given)	inconclusive: 0.185 µM [inhibitor, full curve, poor fit]
Cc1ccc(-n2ncc3c2ncn2c(-c4ccncc4)nnc32)cc1	inconclusive: 10.4 µM [inhibitor, single point]
O=c1oc(C2(O)CCCCC2)cc2ccc(/C=C/c3ccc(F)cc3)cc12	inconclusive: 4.15 µM [inhibitor, single point]
O=[N+]([O-])c1cccc(C2NCC(c3ccccc3Cl)c3c2[nH]c2ccccc32)c1 (stereo not given)	active: 13.1 µM
O=C(C1=C[C@@H](c2csc3ccccc23)C[C@@H](OCc2ccc(CO)cc2)O1)N1CCOCC1	inconclusive: 9.28 µM [inhibitor, partial curve]
CCc1ccccc1NC(=O)/C(C#N)=C\c1ccc(Sc2ccccc2)o1	inconclusive: 11.7 µM [inhibitor, single point]
COc1ccc(C)cc1S(=O)(=O)N1CCCC(C(=O)N2CCN(c3ccccc3F)CC2)C1 (stereo not given)	inconclusive: 14.7 µM [inhibitor, partial curve, poor fit]
O=C(COc1ccccc1)NNC(=S)NC(=O)c1ccc(Cl)cc1Cl	inconclusive: 0.522 µM [inhibitor, full curve, poor fit]
COc1ccccc1NS(=O)(=O)c1cc(NC(=O)Nc2ccccc2)ccc1N1CCCCC1	active: 1.47 µM
CCOc1ccc(S(=O)(=O)N2CCOCC2)cc1NC(=O)CSCC(=O)Nc1ccc(C)cc1	inconclusive: 5.22 µM [inhibitor, partial curve]
Cc1ccc(S(=O)(=O)N2CCC(=O)N(CCOCc3cccc(C)c3)CC2)cc1	inconclusive: 4.15 µM [inhibitor, single point]
CC(=O)Nc1ccc(S(=O)(=O)NCc2ccc3c(c2)cc(C)n3C)cc1	inconclusive: 18.5 µM [inhibitor, single point]
COC(=O)CCNC(=O)c1ccc2nc(Cc3ccc(OC)c(OC)c3)oc2c1	inconclusive: 0.928 µM [inhibitor, partial curve]

Structures from the list above containing a thiophene ring, fused or not (2):
Structure (SMILES)	Potency
O=C(NCC(c1cccs1)N1CCOCC1)c1cc(-c2ccc(F)cc2)nc2ccccc12 (stereo not given)	inconclusive: 0.185 µM [inhibitor, full curve, poor fit]
O=C(C1=C[C@@H](c2csc3ccccc23)C[C@@H](OCc2ccc(CO)cc2)O1)N1CCOCC1	inconclusive: 9.28 µM [inhibitor, partial curve]

Continued.

Structure (SMILES)	Potency
Cc1cccc(N=C2Sc3nc4c(C)c(C)ccc4cc3CN2CCN2CCOCC2)c1	active: 7.38 µM
Cc1cc(C)c(-c2csc(NC(=O)C3=NN(c4ccccc4)C(=O)CC3)n2)c(C)c1	active: 9.28 µM
COc1cccc(NC(=O)c2oc3ccc(S(=O)(=O)N4CCOCC4)cc3c2C)c1	inactive
COc1ccc(C(=O)N/C(=C\c2cn(C)c3ccccc23)C(=O)N2CCN(C)CC2)cc1	inactive
O=C(CN1CCN(Cc2ccc(F)cc2)CC1)NCCc1ccccc1	inactive
Clc1ccc(COc2cccc(CNCc3ccncc3)c2)cc1	inconclusive: 14.7 µM [inhibitor, partial curve, poor fit]
Cc1cccc(N(Cc2cc3ccccc3[nH]c2=O)C(=O)c2ccco2)c1C	inconclusive: 10.4 µM [inhibitor, single point]
CN(C)c1ccc(CNC(=O)CCc2ccc(S(=O)(=O)N3CCCCCC3)cc2)cc1	inconclusive: 5.86 µM [inhibitor, partial curve, poor fit]
CSCC[C@H](NC(=O)[C@@H]1CSC2c3ccccc3C(=O)N21)C(=O)NCc1ccco1 (stereo not given in full)	inconclusive: 14.7 µM [inhibitor, single point]
O=C(NNS(=O)(=O)c1ccc(F)cc1)c1cccc(O)c1	inconclusive: 18.5 µM [inhibitor, single point]
CCc1ccccc1N1C(=O)CC(N2CCc3ccccc32)C1=O (stereo not given)	inconclusive: 2.08 µM [inhibitor, full curve]
COc1cccc(NC(=O)CC2Oc3ccccc3NC2=O)c1 (stereo not given)	inconclusive: 3.29 µM [inhibitor, partial curve, poor fit]
CC(=O)Nc1ccc(C2=NN(C)C(=NCc3ccccc3)SC2)cc1	active: 11.7 µM
Cc1ccc(C(=O)N/C(=C\c2ccc(Cl)cc2)C(=O)NCCN2CCOCC2)cc1	inconclusive: 11.7 µM [inhibitor, single point]
O=C(NCCc1ccc(Cl)cc1)c1ccc(CS(=O)Cc2ccc(Cl)cc2)o1 (stereo not given)	inconclusive: 13.1 µM [inhibitor, single point]
CN1CCc2c(sc(NC(=O)c3ccc(S(=O)(=O)N4CCCC4)cc3)c2C(N)=O)C1	inconclusive: 11.7 µM [inhibitor, partial curve]
[O-]/C(=C(\C(=S)Nc1ccc(SC(F)F)cc1)[n+]1cccc(CO)c1)c1ccc(Cl)s1	inconclusive: 13.1 µM [inhibitor, partial curve, poor fit]
Cc1cc(C(=O)OCC(=O)c2ccc(Br)s2)no1	inconclusive: 8.28 µM [inhibitor, partial curve, poor fit]
CC1CN(C(=O)c2cccc(S(=O)(=O)NCc3ccccc3)c2)CC(C)O1 (stereo not given)	inactive
Cc1cc(Cl)c2oc(C(=O)N(C)CC3CCOCC3)c(C)c2c1	inconclusive: 3.7 µM [inhibitor, full curve, poor fit]
